Where a name gives a salt, the structure may show the parent alone. This is one part of the list. Hit calls seldom repeat between salt and free forms of one compound.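 Kinases were expressed as nanoluciferase fusions in K562 cells and luminescence was read every 4 h between 2 and 18 h as percent of control, DMSO set to 100% and a positive control to 0%. A time point counts as decreased when the signal drops significantly (2 sigma). The hit call is the authors' own, does not follow from the count of time points alone, and its rule is not shown.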
Each compound was assayed against PDGFRB (UniProt P09619) (assay: kinase-Nluc reporter destabilization hit call (1 = scored as downregulated) (binary); higher = compound decreases kinase abundance). Settings: K562; 2-18 h.

Protein sequences, listed by entry. Tags and fused reporters are not part of them.
UniProt P09619, whole entry: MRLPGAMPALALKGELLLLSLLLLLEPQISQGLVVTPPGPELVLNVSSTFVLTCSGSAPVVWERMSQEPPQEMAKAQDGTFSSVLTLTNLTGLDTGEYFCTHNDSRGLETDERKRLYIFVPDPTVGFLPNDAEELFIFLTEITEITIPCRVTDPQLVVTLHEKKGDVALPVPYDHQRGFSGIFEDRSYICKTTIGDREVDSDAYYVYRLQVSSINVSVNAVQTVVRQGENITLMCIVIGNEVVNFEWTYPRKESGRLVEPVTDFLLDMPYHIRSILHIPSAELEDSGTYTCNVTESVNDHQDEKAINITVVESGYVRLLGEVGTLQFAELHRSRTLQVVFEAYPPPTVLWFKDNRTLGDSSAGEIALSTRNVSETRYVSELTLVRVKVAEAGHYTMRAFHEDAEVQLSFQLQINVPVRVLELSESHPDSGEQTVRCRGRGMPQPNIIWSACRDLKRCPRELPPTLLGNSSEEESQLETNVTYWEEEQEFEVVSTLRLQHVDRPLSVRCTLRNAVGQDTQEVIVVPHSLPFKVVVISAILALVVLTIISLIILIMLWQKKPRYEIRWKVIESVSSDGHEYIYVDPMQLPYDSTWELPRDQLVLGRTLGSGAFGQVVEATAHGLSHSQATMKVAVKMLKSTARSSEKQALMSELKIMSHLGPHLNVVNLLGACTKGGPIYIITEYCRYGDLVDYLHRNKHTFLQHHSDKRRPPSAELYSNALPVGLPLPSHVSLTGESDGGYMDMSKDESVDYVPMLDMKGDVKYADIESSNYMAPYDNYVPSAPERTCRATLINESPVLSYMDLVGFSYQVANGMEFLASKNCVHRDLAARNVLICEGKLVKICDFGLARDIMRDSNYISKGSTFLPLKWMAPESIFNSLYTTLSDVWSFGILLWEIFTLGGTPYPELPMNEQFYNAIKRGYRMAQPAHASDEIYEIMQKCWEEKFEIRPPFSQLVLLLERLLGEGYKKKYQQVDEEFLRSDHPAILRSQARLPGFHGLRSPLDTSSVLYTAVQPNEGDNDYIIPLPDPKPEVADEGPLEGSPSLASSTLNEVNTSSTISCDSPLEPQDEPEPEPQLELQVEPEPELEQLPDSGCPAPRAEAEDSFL

kinase-Nluc reporter destabilization hit call, inactive:
CC(C1CC1)n1cnc2c(NCc3cccc(C(F)(F)F)c3)nc(NCCN(C)C)nc21 (stereo not drawn) (10 µM) 0, COc1cc2nc(NC3CC3)nc(NC3CCN(C(C)C)CC3)c2cc1OC (10 µM) 0, Cc1nn(CC(F)(F)F)cc1Nc1ncc(Br)c(NCc2ccc(S(N)(=O)=O)cc2)n1 (10 µM) 0, N#C/C(=C/c1ccc(O)c(O)c1)C(=O)N1CCc2ccccc21 [Tyrphostin AG 528] (10 µM) 0, Cc1nc2c(NCc3cccc(S(C)(=O)=O)c3)nccn2c1-c1ccc(O)c(F)c1 (10 µM) 0, CN(C)c1cc[n+](Cc2ccc(OCCOc3ccc(C[n+]4ccc(N(C)C)cc4)cc3)cc2)cc1 (10 µM) 0, O=C1CCC(N2C(=O)c3cccc(OCCCCCOc4ccc(CC(=O)Nc5cc(C6CCC6)[nH]n5)cc4)c3C2=O)C(=O)N1 (stereo not drawn) [PROTAC CDK9 Degrader-1] (10 µM) 0, CCOc1cc(=O)[nH]cc1-c1ccc(CC(=O)Nc2cc(C(C)(C)C(F)(F)F)on2)c(F)c1 (10 µM) 0, O=C(O)/C=C(\CCc1ccc(Cl)cc1)c1ccccc1 (10 µM) 0, CCc1c(C(=O)NNC(=O)[C@H](O)c2cc(F)cc(F)c2)ccc(O)c1C (10 µM) 0, O=c1cc(N2CCOCC2)oc2c(-c3cccc4c3sc3ccccc34)cccc12 (10 µM) 0, CN1CCN(c2ccc(-n3cc(-c4ccncc4OCC4CCNCC4)cn3)cc2)CC1 [MELK-8a (hydrochloride)] (10 µM) 0, Cc1ccc(C2CC(=O)NC(SCC(=O)Nc3nccs3)=C2C#N)cc1 (stereo not drawn) [Necrostatin-34] (10 µM) 0, CNc1cc2c(Nc3cccc(Br)c3)ncnc2cn1 (10 µM) 0, Cn1cc(-c2nc(N[C@@H]3CCCC[C@@H]3N)c(F)c3c2C(=O)NC3)cn1 [TAK-659 (hydrochloride)] (2 µM) 0, CC(=O)Nc1nc(C)c(-c2cc(C)c3c(c2)CN([C@@H](C)C2CC2)C3=O)s1 (10 µM) 0, CN(C)c1ccc(/C=C2\C(=O)Nc3ccccc32)c2ccccc12 (10 µM) 0, COc1ccc(-c2cc(=O)c3c(O)cc(O)cc3o2)cc1-c1c(O)cc(O)c2c(=O)cc(-c3ccc(O)cc3)oc12 [Bilobetin] (2.5 µM) 0, O=C(NCc1ccn[nH]1)c1cc([C@@H]2CCNC[C@H]2COc2ccc3c(c2)OCO3)ccc1F [GRK2-IN-1 (hydrochloride)] (10 µM) 0, Nc1ccc(C(=O)Nc2cccc(-c3nc(N4CCOCC4)c4oc5ncccc5c4n3)c2)cn1 (10 µM) 0, CCOC(=O)c1c(C)[nH]c(C=C2C(=O)Nc3ccccc32)c1C (10 µM) 0, CCCS(=O)(=O)N[C@H]1C[C@@H](N(C)c2ncnc3[nH]ccc23)C1 [Abrocitinib] (10 µM) 0, O=[N+]([O-])c1ccc(-c2nc(-c3ccc(F)cc3)c(-c3ccncc3)[nH]2)cc1 (10 µM) 0, O=C(O)c1c[nH]c2cc(Cl)c(-c3ccc(C4(O)CCC4)cc3)cc12 (10 µM) 0, CN1CCC(Nc2nc(Nc3ccc(Oc4ccccc4)cc3)c3c(=O)[nH]cc(Br)c3n2)CC1 (2.5 µM) 0, CO[C@]1(C(=O)N[C@@H](C)c2ccc(-n3cc(F)cn3)nc2)CC[C@H](c2nc(C)cc(Nc3cc(C)[nH]n3)n2)CC1 [Pralsetinib] (10 µM) 0, COc1c(Nc2ncc(Cl)c(N[C@H]3[C@@H](C(N)=O)[C@@H]4C=C[C@H]3C4)n2)ccc2c1CC[C@@H](N1CCOCC1)CC2 (10 µM) 0, CN1CCN(Cc2ccc(-c3cn(C4CCC(O)CC4)c4nc(NCCC5CC5)ncc34)cc2)CC1 (stereo not drawn) (2.5 µM) 0, C[C@@H]1COC(Nc2ccc3ncnc(Nc4ccc(OCc5nccs5)c(Cl)c4)c3c2)=N1 [Varlitinib] (10 µM) 0, CC(C)n1cnc2c(Nc3cccc(Cl)c3)nc(N[C@H]3CCCC[C@@H]3N)nc21 (2.5 µM) 0, Cc1n[nH]c2ncc(C(=O)N3CCC[C@H]3c3ccc(Cl)cc3)cc12 (10 µM) 0, COc1ccc2cc1Oc1ccc(cc1)C[C@H]1c3cc(c(OC)cc3CCN1C)Oc1c(O)c(OC)cc3c1[C@H](C2)N(C)CC3 [Fangchinoline] (2.5 µM) 0, CS[C@@]1(C(=O)Nc2ccc3[nH]nc(-c4ccc(OC(C)C)nc4)c3c2)CCN(CC(=O)N2CC=C(c3ccc(-c4ncn(C)n4)cc3)CC2)C1 (2.5 µM) 0, CC/C(=C(\c1ccccc1)c1ccc(OCCNC)cc1)c1ccccc1 [N-Desmethyltamoxifen (hydrochloride)] (2.5 µM) 0, CNC(=O)CN1CCC(Oc2cc3c(Nc4cccc(Cl)c4F)ncnc3cc2OC)CC1 [Sapitinib] (10 µM) 0, O=CN1CCN(c2ccc(C=C3C(=O)Nc4ccccc43)cc2)CC1 (10 µM) 0, CCCCC(=O)OCC(=O)[C@]1(O)Cc2c(O)c3c(c(O)c2[C@@H](O[C@H]2C[C@H](NC(=O)C(F)(F)F)[C@H](O)[C@H](C)O2)C1)C(=O)c1c(OC)cccc1C3=O [Valrubicin] (10 µM) 0, Fc1ccc(Cl)cc1-c1nc(Nc2ccncc2)c2nccnc2n1 (10 µM) 0
